PubChem BioAssay AID743121 | NCATS | 2013
Assay: 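Partners whose loss is lethal together with topoisomerase I blockade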 (primary screen). Cell system: MDA-MB-231 cells, a human breast cancer line. Knock-down reagent: single siRNA against human genes, 20 nM siRNA (0.8 pmol per well). Time to read-out: 120 h (drug added 48 h after transfection, read 72 h later). Challenge: camptothecin 20 nM (about EC30) for 72 h; vehicle 0.1% DMSO in parallel plates. Measurement: 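Cell viability by ATP luminescence (CellTiter-Glo) as % of non-targeting siRNA wells, and the log2 ratio of viability without drug over viability with camptothecin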. Direction: log2 vehicle/camptothecin viability: higher = stronger sensitisation to camptothecin. Call rule: 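Active genes have an RSA gene-level p-value below 0.001, computed from the ratios of their separate siRNAs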.
The deposit covers about 26,000 reagents; shown is a random part of them. 167 of all reagents (0.63%) were called active. 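Calls are per gene from RSA p-values that are not deposited; an individual active-marked siRNA can sensitise only weakly.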 The numbers tell different reagents against one gene apart. Further read-outs or replicates are left out here. No sequences are given here.

log2 vehicle/camptothecin viability, by target gene and reagent
COL6A3 (GeneID 1293): #1 -0.469 inactive; #2 -0.173 inactive; #3 -0.167 inactive
DNPEP (GeneID 23549): #1 -0.489 inactive; #2 -0.105 inactive; #3 -0.756 inactive
RHAG (GeneID 6005): #1 -0.496 inactive; #2 -0.00602 inactive; #3 -0.504 inactive; #4 -0.203 inactive
SIGLEC11 (GeneID 114132): #1 -0.483 inactive; #2 -0.417 inactive; #3 0.324 inactive
FECH (GeneID 2235): #1 -0.0833 inactive; #2 -0.524 inactive; #3 0.0574 inactive; #4 -0.513 inactive
NF2 (GeneID 4771): #1 0.147 inactive; #2 -1.17 inactive; #3 0.166 inactive; #4 -0.167 inactive; #5 0.288 inactive; #6 -0.0884 inactive
BTN3A1 (GeneID 11119): #1 0.38 inactive; #2 -0.341 inactive; #3 -0.211 inactive; #4 0.106 inactive
KIF5C (GeneID 3800): #1 -0.293 inactive; #2 -0.349 inactive; #3 -0.0838 inactive; #4 1.05 inactive; #5 -0.163 inactive; #6 0.0279 inactive; #7 -0.143 inactive; #8 -0.119 inactive
AMH (GeneID 268): #1 -0.0373 inactive; #2 -0.354 inactive; #3 -0.401 inactive
FANCG (GeneID 2189): #1 -0.00495 inactive; #2 -0.688 inactive; #3 0.494 inactive
RAD54B (GeneID 25788): #1 0.0062 inactive; #2 0.31 inactive; #3 0.56 inactive
PRF1 (GeneID 5551): #1 -0.181 inactive; #2 -0.0104 inactive; #3 0.0117 inactive; #4 -0.718 inactive
